Assay results published in PubChem BioAssay AID901 (National Center for Advancing Translational Sciences (NCATS), 2007).
The other results are listed elsewhere or left out. Shown are side measurements of this screen, not its main read-out; they come without a call. Most of these compounds were active or inconclusive in the main read-out, so they are no random draw. Potencies come from curve fits of mixed quality, noted in brackets.

Experiment: qHTS Assay for Identifying the Cell-Membrane Permeable IMPase Inhibitors
Conditions: CHO-M1 cells, IP1 accumulation, HTRF TR-FRET ratio; measured here: donor channel 620 nm AC50

| SMILES | AC50 |
| --- | --- |
| CCS(=O)(=O)n1nc(-c2ccco2)nc1SC | 501 nM [falling, full curve, poor fit] |
| CCOC(=O)c1sc(NC(C)=O)c(C(=O)OCC)c1C | 3.16 nM [falling, full curve, poor fit] |
| O=C1NC(=O)C2(CCC(C(=O)O)C2)N1 (stereo unspecified) | 31600 nM [falling, single point] |
| CCOC(=O)c1c(C)[nH]c(C(=O)COC(=O)CN2C(=O)C3CCCCC3C2=O)c1C (stereo unspecified) | 1580 nM [falling, full curve, poor fit] |
| O=C(Nc1ccccc1)c1ccc[n+](Cc2ccc([N+](=O)[O-])cc2)c1 | 5010 nM [rising, single point] |
| CCCCN(CC)S(=O)(=O)c1ccc(C(=O)Nc2nnc(COC)o2)cc1 | 158 nM [falling, full curve, poor fit] |
| O=c1[nH]c2cc3c(cc2cc1C(c1nnnn1CC1CCCO1)N1CCCCCC1)OCO3 (stereo unspecified) | 200 nM [falling, full curve] |
| CC1(C)CC(=O)C(C=NCC2CCN(C(=O)Nc3ccc(Cl)c(Cl)c3)CC2)=C(O)C1 | 15.8 nM [rising, partial curve, poor fit] |
| CC1(C)Cc2c(sc3ncnc(N)c23)CO1 | 708 nM [falling, full curve] |
| CCCCn1c(=N)n(CC(O)COc2ccccc2)c2ccccc21 (stereo unspecified) | 501 nM [falling, single point] |
| Fc1ccc(CSc2ccc(-c3ccc4c(c3)OCO4)nn2)cc1 | 22400 nM [rising, single point] |
| O=C(Cn1ncn2cccc2c1=O)N1CCCCC1 | 25.1 nM [rising, full curve, poor fit] |
| CCn1nc(C(=O)Nc2cccc(C(F)(F)F)c2)c(Cl)c1Cl | 10 nM [falling, full curve, poor fit] |
| CCCCCOc1ccc(C2NC(=O)NC2=O)cc1 (stereo unspecified) | 3.16 nM [falling, full curve, poor fit] |
| Cn1ncc(Cl)c1C(=O)Nc1cc(C(F)(F)F)ccc1F | 251 nM [falling, full curve] |
| Cc1cc(C)n(-c2cc(Cl)cc(Cl)c2)c(=O)c1C#N | 251 nM [rising, single point] |
| CN(C)c1nc(N)nc(N(c2ccccc2)c2ccccc2)n1 | 35500 nM [falling, single point] |
| COc1ccc(-c2cc(C(=O)Oc3ccc([N+](=O)[O-])cc3)c3ccccc3n2)cc1 | 5.01 nM [falling, full curve, poor fit] |
| O=C(NCC1CCCO1)C1CCN(CC2CCCCC2)CC1 (stereo unspecified) | 25.1 nM [falling, full curve, poor fit] |
| COc1ccc(C2C(C(N)=O)=C(C)Nc3nc(-c4cccc(Cl)c4)nn32)cc1OC (stereo unspecified) | 178 nM [rising, full curve, poor fit] |
| CC(O)CNCc1ccc(-c2ccccc2)cc1 (stereo unspecified) | 6310 nM [rising, single point] |
| CCOC(=O)c1ccccc1NC(=O)CN(c1ccccc1)S(=O)(=O)N(C)C | 35500 nM [falling, single point] |

Of the compounds above, 2 contain an aryl methoxy group:

| SMILES | AC50 |
| --- | --- |
| COc1ccc(-c2cc(C(=O)Oc3ccc([N+](=O)[O-])cc3)c3ccccc3n2)cc1 | 5.01 nM [falling, full curve, poor fit] |
| COc1ccc(C2C(C(N)=O)=C(C)Nc3nc(-c4cccc(Cl)c4)nn32)cc1OC (stereo unspecified) | 178 nM [rising, full curve, poor fit] |

(more compounds)

| SMILES | AC50 |
| --- | --- |
| CC(=O)N(Cc1cc2c(C)cc(C)cc2[nH]c1=O)C1CCCCC1 | 63.1 nM [rising, partial curve, poor fit] |
| COc1ccc(OCC(=O)Nc2nnc(C)s2)cc1 | 12.6 nM [rising, full curve, poor fit] |
| Cc1nc(SCC(=O)Nc2ccc(F)cc2)c2oc3ccccc3c2n1 | 25100 nM [rising, single point] |
| COc1ccc(C2CC(=O)c3c(C)nc(N4CCN(Cc5ccccc5)CC4)nc3C2)cc1OC (stereo unspecified) | 25.1 nM [rising, full curve, poor fit] |
| COc1ccc2cc(C(c3nnnn3Cc3ccccc3)N3CCCCCC3)c(=O)[nH]c2c1 (stereo unspecified) | 6310 nM [falling, partial curve, poor fit] |
| Cc1cc(NC(=O)c2cc(CC(C)C)on2)no1 | 4.47 nM [falling, full curve, poor fit] |
| Cc1ccccc1Cn1c(=O)n(Cc2ccco2)c(=O)c2ccccc21 | 112 nM [falling, full curve] |
| CCOC(=O)C1CCN(CC(=O)N2CCCc3c2c(=O)oc2ccc(OCc4ccccc4)cc32)CC1 | 35500 nM [falling, single point] |
| N#CCSc1nc(N)c(C#N)c(C2CCCCC2)c1C#N | 2510 nM [rising, single point] |
| CC1CCc2nc(NCCO)nc(C(F)(F)F)c2C1 (stereo unspecified) | 31600 nM [rising, single point] |
| O=C(CSc1ncnc2c1cnn2-c1ccccc1)Nc1ccccc1 | 31600 nM [rising, single point] |
| CCOC(=O)c1nc(NCc2cccnc2)c2ccccc2n1 | 20 nM [falling, single point] |
| O=C(CSc1ncc(-c2ccc(F)cc2)n1Cc1ccco1)Nc1ccc2c(c1)OCO2 | 501 nM [rising, full curve, poor fit] |
| CCN1/C(=C2\C(=O)N(C)C(=S)N2C)C=Cc2ccccc21 | 15800 nM [falling, partial curve] |
| Cc1[nH]c2ccccc2c1/C=C/c1cc[n+](C)cc1 | 7940 nM [falling, partial curve, poor fit] |
| CCOC(=O)C1CCN(CC(=O)Nc2cc(C)nn2-c2nc3ccccc3s2)CC1 | 3980 nM [falling, single point] |
| Cn1c(=O)n(C)c2cc(NS(=O)(=O)c3ccc(Br)cc3)c(NCc3ccccc3)cc21 | 3160 nM [falling, partial curve] |
| CCCCc1nc2ccccc2n2c(-c3ccc(C)cc3)c3c(=O)n(C)c(=O)n(C)c3c12 | 178 nM [falling, full curve] |
| N[C@@H](Cc1ccccc1)c1nnc2sc(SCc3ccccc3)nn12 | 25100 nM [rising, single point] |
| CNC(=S)NNC(=O)CCn1nc(C)c(Br)c1C | 178 nM [falling, full curve, poor fit] |
| CCc1nc(SCc2cccnc2)c2c(=O)n(C)c(=O)n(C)c2n1 | 31600 nM [rising, single point] |
| CC1CN(S(=O)(=O)c2cccc(C(=O)OC/C(O)=C(\C#N)c3nc4ccccc4[nH]3)c2)CC(C)O1 (stereo unspecified) | 126 nM [rising, full curve, poor fit] |

A second format for part of the listing above:
SMILES | AC50
Cc1nc(SCC(=O)Nc2ccc(F)cc2)c2oc3ccccc3c2n1 | 25100 nM [rising, single point]
COc1ccc(C2CC(=O)c3c(C)nc(N4CCN(Cc5ccccc5)CC4)nc3C2)cc1OC (stereo unspecified) | 25.1 nM [rising, full curve, poor fit]
COc1ccc2cc(C(c3nnnn3Cc3ccccc3)N3CCCCCC3)c(=O)[nH]c2c1 (stereo unspecified) | 6310 nM [falling, partial curve, poor fit]

(continued)

| SMILES | AC50 |
| --- | --- |
| COC(=O)c1cnc2ccccc2n1 | 10000 nM [falling, partial curve] |
| Cc1cc(NS(=O)(=O)c2ccc(NC(=O)c3ccoc3C)cc2)nc(C)n1 | 10 nM [rising, full curve, poor fit] |
| Cc1cc(NC(=O)CSc2cn(CCNC(=O)c3ccc(Cl)cc3)c3ccccc23)no1 | 5010 nM [falling, partial curve] |
| Cc1ccc(N2C(=O)S/C(=C/c3cn(C)c4ccccc34)C2=O)cc1 | 10 nM [rising, full curve, poor fit] |
| CC(C)c1ccccc1OCC(=O)NC1CCCc2ccccc21 (stereo unspecified) | 708 nM [falling, full curve, poor fit] |
| CCCCN1C(=O)NC2NC(=O)NC21 (stereo unspecified) | 1260 nM [falling, full curve] |
| CCN1CCN(c2ccc(NS(=O)(=O)c3c(C)nc4sccn4c3=O)cc2Cl)CC1 | 251 nM [falling, partial curve] |
| COc1ccc(CNC(=S)Nc2ccccc2C)cc1 | 63.1 nM [falling, full curve, poor fit] |
| Cc1sc2nc3n(c(=O)c2c1C)CCCCC3 | 5.01 nM [falling, full curve] |
| COc1nc(-c2ccccc2)ccc1-c1noc(C)n1 | 20000 nM [falling, single point] |
| COc1ccc(-c2nn(C)c(=O)c3ccccc23)cc1NC(=O)COc1ccc(C)cc1 | 794 nM [falling, full curve, poor fit] |
| CC1=NN(C(N)=S)C(=O)C1N=Nc1ccccc1C (stereo unspecified) | 1000 nM [falling, full curve] |
| CCOc1cc(N2CCOCC2)c(OCC)cc1NC(=O)c1ccc(=O)n(Cc2ccccc2)n1 | 3160 nM [falling, partial curve] |
| CC(Oc1ccc(Cl)cc1)C(=O)OCC(=O)Nc1ncc(Cl)cc1Cl (stereo unspecified) | 7940 nM [falling, partial curve, poor fit] |
| c1ccc(-n2ncc3c(N4CCN(c5ccccn5)CC4)nc(N4CCOCC4)nc32)cc1 | 39.8 nM [rising, full curve, poor fit] |
| CCCOC(=O)C1C2C=CC3(CN(c4ccc(Cl)c(F)c4)C(=O)C13)O2 (stereo unspecified) | 1000 nM [falling, full curve, poor fit] |
| CCOc1ccc2nc(SCC(=O)NC(=O)NCc3ccco3)[nH]c2c1 | 20 nM [rising, full curve, poor fit] |
| COC(=O)C1=C(C)N=C2SC(C#N)=C(N)N2C1c1cc(OC)c(OC)c(OC)c1 (stereo unspecified) | 5010 nM [rising, single point] |
| CC(Oc1cccc(F)c1)C(=O)/C=C\N(C)C (stereo unspecified) | 31600 nM [falling, single point] |
| Cc1ccc(NC(=O)c2ccc(OC(=S)N3CCOCC3)cc2)cc1 | 31.6 nM [falling, full curve, poor fit] |
| CC(C)(C)C1CCc2onc(C(=O)Nc3cccc(O)c3)c2C1 (stereo unspecified) | 31600 nM [falling, single point] |
| CCOC(=O)CSc1nc(CC)nc2ccccc12 | 12600 nM [rising, partial curve] |
